Measurements reported in PMC12490858.
These are yes or no findings as the source states them, for the method shown. Some binding calls cover weakened binding; strength is not graded here. Blank lines part the entries; values can stand above or below the binder they belong to.

What was measured:
Assay in all cases: urea ChIP-Western; formaldehyde-crosslinked thymocyte chromatin purified by 8 M urea ultracentrifugation and sonicated (~10 ug chromatin-DNA); immunoprecipitated with the indicated antibody on Protein-A beads, washed 6 times, reverse-crosslinked at 65 C; released proteins detected by western blot
[1] = biological target: T1, RAD21 (a cohesin complex component) (mouse (endogenous in thymocytes)) (UniProt Q61550)
T1 sequence: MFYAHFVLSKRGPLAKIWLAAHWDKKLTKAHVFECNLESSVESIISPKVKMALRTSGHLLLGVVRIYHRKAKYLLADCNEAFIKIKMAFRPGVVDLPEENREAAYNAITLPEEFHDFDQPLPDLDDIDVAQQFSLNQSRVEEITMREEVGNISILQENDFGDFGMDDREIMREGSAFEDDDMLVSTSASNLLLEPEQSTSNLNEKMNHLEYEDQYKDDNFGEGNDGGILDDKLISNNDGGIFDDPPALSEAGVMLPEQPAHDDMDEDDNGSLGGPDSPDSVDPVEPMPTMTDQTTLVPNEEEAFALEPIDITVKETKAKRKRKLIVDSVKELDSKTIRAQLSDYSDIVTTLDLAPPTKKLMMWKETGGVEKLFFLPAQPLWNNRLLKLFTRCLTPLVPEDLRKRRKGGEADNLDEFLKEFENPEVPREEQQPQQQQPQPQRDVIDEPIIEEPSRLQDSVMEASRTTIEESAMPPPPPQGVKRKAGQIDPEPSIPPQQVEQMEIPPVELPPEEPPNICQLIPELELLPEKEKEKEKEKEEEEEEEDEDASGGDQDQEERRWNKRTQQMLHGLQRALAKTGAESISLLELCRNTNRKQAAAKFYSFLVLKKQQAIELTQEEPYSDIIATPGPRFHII

[2] = biological target: T2, SATB1 (mouse (endogenous in thymocytes)), Q60611; conditions: remark: other sources report otherwise
T2 chain: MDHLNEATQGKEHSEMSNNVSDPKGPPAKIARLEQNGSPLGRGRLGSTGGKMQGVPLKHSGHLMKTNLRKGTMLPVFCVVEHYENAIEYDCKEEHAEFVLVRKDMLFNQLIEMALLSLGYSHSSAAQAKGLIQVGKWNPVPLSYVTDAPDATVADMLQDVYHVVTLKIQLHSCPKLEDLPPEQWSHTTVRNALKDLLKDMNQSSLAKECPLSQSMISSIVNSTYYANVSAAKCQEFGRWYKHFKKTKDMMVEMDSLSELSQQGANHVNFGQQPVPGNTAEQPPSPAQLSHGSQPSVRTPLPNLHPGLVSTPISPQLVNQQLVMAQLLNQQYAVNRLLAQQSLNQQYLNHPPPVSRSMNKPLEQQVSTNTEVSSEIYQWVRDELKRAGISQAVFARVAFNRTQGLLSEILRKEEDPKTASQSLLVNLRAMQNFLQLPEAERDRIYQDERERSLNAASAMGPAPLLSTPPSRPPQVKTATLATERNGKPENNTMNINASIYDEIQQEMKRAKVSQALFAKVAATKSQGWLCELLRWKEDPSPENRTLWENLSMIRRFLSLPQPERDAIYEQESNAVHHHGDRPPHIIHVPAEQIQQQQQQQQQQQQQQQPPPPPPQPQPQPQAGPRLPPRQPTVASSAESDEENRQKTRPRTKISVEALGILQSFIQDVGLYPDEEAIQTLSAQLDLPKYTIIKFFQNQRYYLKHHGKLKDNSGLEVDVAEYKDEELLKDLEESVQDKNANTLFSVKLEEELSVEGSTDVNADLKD

[3] = biological target: T3, CCCTC-binding factor (CTCF) (mouse (endogenous in thymocytes)) (UniProt Q61164)
T3 sequence: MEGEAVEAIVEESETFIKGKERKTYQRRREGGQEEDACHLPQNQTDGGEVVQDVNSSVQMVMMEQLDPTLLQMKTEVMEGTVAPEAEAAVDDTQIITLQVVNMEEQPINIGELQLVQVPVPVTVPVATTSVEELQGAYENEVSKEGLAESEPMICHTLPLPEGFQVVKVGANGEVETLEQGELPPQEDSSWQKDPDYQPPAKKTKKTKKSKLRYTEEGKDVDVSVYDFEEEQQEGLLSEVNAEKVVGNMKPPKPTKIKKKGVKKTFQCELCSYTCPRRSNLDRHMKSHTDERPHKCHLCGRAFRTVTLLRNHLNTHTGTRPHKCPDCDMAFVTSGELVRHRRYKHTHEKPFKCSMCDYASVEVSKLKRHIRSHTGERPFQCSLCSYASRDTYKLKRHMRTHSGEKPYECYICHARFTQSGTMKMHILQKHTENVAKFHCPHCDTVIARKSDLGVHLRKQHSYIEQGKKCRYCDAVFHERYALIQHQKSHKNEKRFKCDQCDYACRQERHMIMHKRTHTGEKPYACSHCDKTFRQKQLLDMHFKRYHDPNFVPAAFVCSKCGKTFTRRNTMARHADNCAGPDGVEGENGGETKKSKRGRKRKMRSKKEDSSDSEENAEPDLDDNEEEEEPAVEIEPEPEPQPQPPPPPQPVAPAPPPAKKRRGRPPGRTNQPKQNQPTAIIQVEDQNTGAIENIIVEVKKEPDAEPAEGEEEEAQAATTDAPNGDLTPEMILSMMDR

[4] = biological target: T4, SATB1 (mouse (endogenous in thymocytes)) (UniProt Q60611)
T4 sequence: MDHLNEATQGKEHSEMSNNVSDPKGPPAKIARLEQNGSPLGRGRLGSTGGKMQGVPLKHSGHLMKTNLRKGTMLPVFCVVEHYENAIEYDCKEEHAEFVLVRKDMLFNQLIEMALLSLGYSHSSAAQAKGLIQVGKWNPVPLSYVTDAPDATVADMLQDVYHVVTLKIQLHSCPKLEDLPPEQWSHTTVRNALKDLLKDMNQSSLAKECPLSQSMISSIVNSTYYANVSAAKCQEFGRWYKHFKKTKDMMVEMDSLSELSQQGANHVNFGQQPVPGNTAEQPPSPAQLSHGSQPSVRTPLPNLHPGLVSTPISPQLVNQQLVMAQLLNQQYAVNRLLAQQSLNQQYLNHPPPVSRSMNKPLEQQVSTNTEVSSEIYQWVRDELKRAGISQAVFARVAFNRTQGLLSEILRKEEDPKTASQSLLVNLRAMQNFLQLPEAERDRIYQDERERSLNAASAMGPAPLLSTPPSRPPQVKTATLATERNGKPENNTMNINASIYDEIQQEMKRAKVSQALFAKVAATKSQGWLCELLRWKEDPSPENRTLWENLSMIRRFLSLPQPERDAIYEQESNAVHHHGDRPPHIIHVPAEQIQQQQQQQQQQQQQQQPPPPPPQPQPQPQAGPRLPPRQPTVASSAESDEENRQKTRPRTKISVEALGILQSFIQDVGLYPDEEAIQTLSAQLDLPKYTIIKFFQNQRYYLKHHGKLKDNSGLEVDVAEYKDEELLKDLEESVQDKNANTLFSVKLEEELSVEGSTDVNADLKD

B1: CCCTC-binding factor (CTCF) (protein, UniProt Q61164 1-736)
chain: MEGEAVEAIVEESETFIKGKERKTYQRRREGGQEEDACHLPQNQTDGGEVVQDVNSSVQMVMMEQLDPTLLQMKTEVMEGTVAPEAEAAVDDTQIITLQVVNMEEQPINIGELQLVQVPVPVTVPVATTSVEELQGAYENEVSKEGLAESEPMICHTLPLPEGFQVVKVGANGEVETLEQGELPPQEDSSWQKDPDYQPPAKKTKKTKKSKLRYTEEGKDVDVSVYDFEEEQQEGLLSEVNAEKVVGNMKPPKPTKIKKKGVKKTFQCELCSYTCPRRSNLDRHMKSHTDERPHKCHLCGRAFRTVTLLRNHLNTHTGTRPHKCPDCDMAFVTSGELVRHRRYKHTHEKPFKCSMCDYASVEVSKLKRHIRSHTGERPFQCSLCSYASRDTYKLKRHMRTHSGEKPYECYICHARFTQSGTMKMHILQKHTENVAKFHCPHCDTVIARKSDLGVHLRKQHSYIEQGKKCRYCDAVFHERYALIQHQKSHKNEKRFKCDQCDYACRQERHMIMHKRTHTGEKPYACSHCDKTFRQKQLLDMHFKRYHDPNFVPAAFVCSKCGKTFTRRNTMARHADNCAGPDGVEGENGGETKKSKRGRKRKMRSKKEDSSDSEENAEPDLDDNEEEEEPAVEIEPEPEPQPQPPPPPQPVAPAPPPAKKRRGRPPGRTNQPKQNQPTAIIQVEDQNTGAIENIIVEVKKEPDAEPAEGEEEEAQAATTDAPNGDLTPEMILSMMDR
binding [1]: binds weakly

B3: RAD21 (a cohesin complex component) (protein, UniProt Q61550 1-635)
chain: MFYAHFVLSKRGPLAKIWLAAHWDKKLTKAHVFECNLESSVESIISPKVKMALRTSGHLLLGVVRIYHRKAKYLLADCNEAFIKIKMAFRPGVVDLPEENREAAYNAITLPEEFHDFDQPLPDLDDIDVAQQFSLNQSRVEEITMREEVGNISILQENDFGDFGMDDREIMREGSAFEDDDMLVSTSASNLLLEPEQSTSNLNEKMNHLEYEDQYKDDNFGEGNDGGILDDKLISNNDGGIFDDPPALSEAGVMLPEQPAHDDMDEDDNGSLGGPDSPDSVDPVEPMPTMTDQTTLVPNEEEAFALEPIDITVKETKAKRKRKLIVDSVKELDSKTIRAQLSDYSDIVTTLDLAPPTKKLMMWKETGGVEKLFFLPAQPLWNNRLLKLFTRCLTPLVPEDLRKRRKGGEADNLDEFLKEFENPEVPREEQQPQQQQPQPQRDVIDEPIIEEPSRLQDSVMEASRTTIEESAMPPPPPQGVKRKAGQIDPEPSIPPQQVEQMEIPPVELPPEEPPNICQLIPELELLPEKEKEKEKEKEEEEEEEDEDASGGDQDQEERRWNKRTQQMLHGLQRALAKTGAESISLLELCRNTNRKQAAAKFYSFLVLKKQQAIELTQEEPYSDIIATPGPRFHII
binding [3]: binds weakly
binding [4]: no binding

Results, then the binder that gave them:

binding [2]: no binding
B2: CCCTC-binding factor (CTCF), Q61164 1-736 (protein)
chain: MEGEAVEAIVEESETFIKGKERKTYQRRREGGQEEDACHLPQNQTDGGEVVQDVNSSVQMVMMEQLDPTLLQMKTEVMEGTVAPEAEAAVDDTQIITLQVVNMEEQPINIGELQLVQVPVPVTVPVATTSVEELQGAYENEVSKEGLAESEPMICHTLPLPEGFQVVKVGANGEVETLEQGELPPQEDSSWQKDPDYQPPAKKTKKTKKSKLRYTEEGKDVDVSVYDFEEEQQEGLLSEVNAEKVVGNMKPPKPTKIKKKGVKKTFQCELCSYTCPRRSNLDRHMKSHTDERPHKCHLCGRAFRTVTLLRNHLNTHTGTRPHKCPDCDMAFVTSGELVRHRRYKHTHEKPFKCSMCDYASVEVSKLKRHIRSHTGERPFQCSLCSYASRDTYKLKRHMRTHSGEKPYECYICHARFTQSGTMKMHILQKHTENVAKFHCPHCDTVIARKSDLGVHLRKQHSYIEQGKKCRYCDAVFHERYALIQHQKSHKNEKRFKCDQCDYACRQERHMIMHKRTHTGEKPYACSHCDKTFRQKQLLDMHFKRYHDPNFVPAAFVCSKCGKTFTRRNTMARHADNCAGPDGVEGENGGETKKSKRGRKRKMRSKKEDSSDSEENAEPDLDDNEEEEEPAVEIEPEPEPQPQPPPPPQPVAPAPPPAKKRRGRPPGRTNQPKQNQPTAIIQVEDQNTGAIENIIVEVKKEPDAEPAEGEEEEAQAATTDAPNGDLTPEMILSMMDR

binding [1]: no binding
B4: SATB1 (protein, UniProt Q60611 1-764)
chain: MDHLNEATQGKEHSEMSNNVSDPKGPPAKIARLEQNGSPLGRGRLGSTGGKMQGVPLKHSGHLMKTNLRKGTMLPVFCVVEHYENAIEYDCKEEHAEFVLVRKDMLFNQLIEMALLSLGYSHSSAAQAKGLIQVGKWNPVPLSYVTDAPDATVADMLQDVYHVVTLKIQLHSCPKLEDLPPEQWSHTTVRNALKDLLKDMNQSSLAKECPLSQSMISSIVNSTYYANVSAAKCQEFGRWYKHFKKTKDMMVEMDSLSELSQQGANHVNFGQQPVPGNTAEQPPSPAQLSHGSQPSVRTPLPNLHPGLVSTPISPQLVNQQLVMAQLLNQQYAVNRLLAQQSLNQQYLNHPPPVSRSMNKPLEQQVSTNTEVSSEIYQWVRDELKRAGISQAVFARVAFNRTQGLLSEILRKEEDPKTASQSLLVNLRAMQNFLQLPEAERDRIYQDERERSLNAASAMGPAPLLSTPPSRPPQVKTATLATERNGKPENNTMNINASIYDEIQQEMKRAKVSQALFAKVAATKSQGWLCELLRWKEDPSPENRTLWENLSMIRRFLSLPQPERDAIYEQESNAVHHHGDRPPHIIHVPAEQIQQQQQQQQQQQQQQQPPPPPPQPQPQPQAGPRLPPRQPTVASSAESDEENRQKTRPRTKISVEALGILQSFIQDVGLYPDEEAIQTLSAQLDLPKYTIIKFFQNQRYYLKHHGKLKDNSGLEVDVAEYKDEELLKDLEESVQDKNANTLFSVKLEEELSVEGSTDVNADLKD
